Assay results as given in PMC6106057.
These are yes or no findings as the source states them, for the method shown. For part of these data: In cells and extracts the contact can be indirect. Some results given as binding are weak or reduced against the parent protein; the word gives no strength.

Sequences of proteins named here, by UniProt entry; tags and fusion partners are left off.
UniProt Q9HGY5: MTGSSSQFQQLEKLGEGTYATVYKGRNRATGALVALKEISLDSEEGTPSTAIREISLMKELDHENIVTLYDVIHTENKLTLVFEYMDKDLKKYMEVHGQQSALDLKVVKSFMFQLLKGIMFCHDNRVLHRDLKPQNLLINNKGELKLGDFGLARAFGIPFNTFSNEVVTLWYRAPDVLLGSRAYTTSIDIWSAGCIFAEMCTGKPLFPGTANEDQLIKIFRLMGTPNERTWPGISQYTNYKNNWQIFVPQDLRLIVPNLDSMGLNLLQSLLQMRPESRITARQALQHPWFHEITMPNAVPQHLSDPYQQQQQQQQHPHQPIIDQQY

Experiments:
[1] = target: LexA-HA-Pho85 (Pho85 bait, pC2HB-Pho85) (Candida albicans) (UniProt Q9HGY5); assay: two-hybrid; C2H, step 2 of the validation protocol: bait and prey plasmids cotransformed into diploid SC2H3, growth on selective medium (SC-Met-Cys-His and/or SC-Met-His; which one is not told for these pairs)
[2] = target: LexA-HA-Pho85 (Pho85 bait, pC2HB-Pho85) (Candida albicans) (UniProt Q9HGY5); assay: co-IP; lysate of SC2H3 with bait and prey plasmids, 500 µg protein, anti-HA magnetic beads overnight at 4°C, blot with anti-FLAG M2-HRP
[3] = target: LexA-HA-Pho85 (Pho85 bait, pC2HB-Pho85) (Candida albicans) (UniProt Q9HGY5); assay: two-hybrid; C2H, bait and prey plasmids cotransformed into diploid SC2H3; 5-fold dilution spot assay on SC-Met-His (lower expression from the MET3 promoter), 30°C
[4] = target: LexA-HA-Pho85 (Pho85 bait, pC2HB-Pho85) (Candida albicans) (UniProt Q9HGY5); assay: two-hybrid; C2H, bait and prey plasmids cotransformed into diploid SC2H3; 5-fold dilution spot assay on SC-Met-Cys-His (strong expression from the MET3 promoter), 30°C
[5] = target: Pcl5 bait (pC2HB-Pcl5) (Candida albicans) (UniProt Q5AK08); assay: two-hybrid; C2H, bait and prey plasmids cotransformed into diploid SC2H3; 5-fold dilution spot assay on SC-Met-His (lower expression from the MET3 promoter), 30°C
[6] = target: Pcl5 bait (pC2HB-Pcl5) (Candida albicans) (UniProt Q5AK08); assay: two-hybrid; C2H, bait and prey plasmids cotransformed into diploid SC2H3; 5-fold dilution spot assay on SC-Met-Cys-His (strong expression from the MET3 promoter), 30°C

Pcl7 prey (from UniProt A0A1D8PDW6 1-684)
binding [1]: binds

VP16-FLAG-Pcl5 (Pcl5 prey, pC2HP-Pcl5) (from UniProt Q5AK08 1-304)
binding [2]: binds
binding [3]: binds
binding [4]: binds

Pho85 prey (pC2HP-Pho85) (from UniProt Q9HGY5 1-326)
binding [5]: binds
binding [6]: binds
